The other results are listed elsewhere or left out.
What was measured:
Assay in all cases: log2 fold change, soluble protein after heating vs DMSO (PISA); higher = thermal stabilisation; K562 cells, 10 uM, 30 min; active = over 0.2 and 3.5 SD of the protein, either way, in both replicates (recomputed)
[1] = compound: COC1=CC=C(C=C1)CN2C=CC3=C2C=C(C=C3)C(=O)NO
Method in brief: (§1)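 K562 cells at 2×10^6 cells/mL were treated for 30 min with 10 μM compound, and aliquots were heated for 3 min over 48°C-58°C before pooling. Extraction used PBS with 0.5% NP-40 at 4°C, and soluble protein was the supernatant after 21,000xg for 90 min, measured by TMTpro 16plex LC-MS/MS with channel sums equalised. Thermal stability values, relative to control samples and from duplicates, are log2 fold changes.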

Sequences of proteins named here, by UniProt entry; tags and fusion partners are left off. A change or cut given only in a name is not applied to a line headed by its entry.
UniProt Q8WVV9: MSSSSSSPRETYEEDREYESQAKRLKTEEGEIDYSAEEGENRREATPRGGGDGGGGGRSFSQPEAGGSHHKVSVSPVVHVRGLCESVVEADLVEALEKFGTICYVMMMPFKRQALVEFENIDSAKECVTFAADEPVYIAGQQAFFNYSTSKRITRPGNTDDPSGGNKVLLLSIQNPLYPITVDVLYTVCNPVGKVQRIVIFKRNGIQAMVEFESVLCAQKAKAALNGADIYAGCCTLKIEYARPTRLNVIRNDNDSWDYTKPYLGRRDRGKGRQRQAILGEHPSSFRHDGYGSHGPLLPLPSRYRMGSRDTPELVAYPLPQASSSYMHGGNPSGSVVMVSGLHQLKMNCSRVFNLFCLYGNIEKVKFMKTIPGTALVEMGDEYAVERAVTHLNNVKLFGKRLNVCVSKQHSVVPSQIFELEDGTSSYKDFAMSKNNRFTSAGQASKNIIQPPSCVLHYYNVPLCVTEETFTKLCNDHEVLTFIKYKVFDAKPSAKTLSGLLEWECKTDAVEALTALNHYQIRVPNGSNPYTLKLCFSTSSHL
UniProt Q9NSE4: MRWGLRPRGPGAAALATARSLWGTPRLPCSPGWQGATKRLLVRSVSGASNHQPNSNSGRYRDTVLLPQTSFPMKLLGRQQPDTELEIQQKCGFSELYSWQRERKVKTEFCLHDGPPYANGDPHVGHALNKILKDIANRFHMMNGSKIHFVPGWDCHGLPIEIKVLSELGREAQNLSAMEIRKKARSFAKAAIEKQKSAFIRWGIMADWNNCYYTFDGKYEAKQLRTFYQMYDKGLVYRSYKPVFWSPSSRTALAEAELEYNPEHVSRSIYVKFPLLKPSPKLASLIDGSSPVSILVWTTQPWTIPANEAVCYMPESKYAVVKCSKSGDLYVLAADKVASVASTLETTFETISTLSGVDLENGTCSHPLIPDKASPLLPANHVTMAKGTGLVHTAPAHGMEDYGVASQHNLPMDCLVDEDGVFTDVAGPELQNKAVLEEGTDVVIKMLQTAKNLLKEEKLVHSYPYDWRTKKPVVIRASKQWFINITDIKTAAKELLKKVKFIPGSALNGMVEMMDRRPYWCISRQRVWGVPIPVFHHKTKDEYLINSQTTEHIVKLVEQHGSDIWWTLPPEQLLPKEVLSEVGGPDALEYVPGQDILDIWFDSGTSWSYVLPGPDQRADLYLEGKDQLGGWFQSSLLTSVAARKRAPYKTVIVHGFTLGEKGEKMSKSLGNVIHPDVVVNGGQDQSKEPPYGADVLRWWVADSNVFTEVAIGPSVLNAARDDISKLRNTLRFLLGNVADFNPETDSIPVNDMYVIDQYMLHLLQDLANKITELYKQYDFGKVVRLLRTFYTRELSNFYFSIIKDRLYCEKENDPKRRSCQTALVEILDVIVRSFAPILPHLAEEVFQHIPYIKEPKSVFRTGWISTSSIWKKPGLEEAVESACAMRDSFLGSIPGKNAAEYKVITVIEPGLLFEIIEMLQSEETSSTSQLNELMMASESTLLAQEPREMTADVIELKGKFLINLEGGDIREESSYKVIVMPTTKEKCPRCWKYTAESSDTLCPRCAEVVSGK
UniProt P51659: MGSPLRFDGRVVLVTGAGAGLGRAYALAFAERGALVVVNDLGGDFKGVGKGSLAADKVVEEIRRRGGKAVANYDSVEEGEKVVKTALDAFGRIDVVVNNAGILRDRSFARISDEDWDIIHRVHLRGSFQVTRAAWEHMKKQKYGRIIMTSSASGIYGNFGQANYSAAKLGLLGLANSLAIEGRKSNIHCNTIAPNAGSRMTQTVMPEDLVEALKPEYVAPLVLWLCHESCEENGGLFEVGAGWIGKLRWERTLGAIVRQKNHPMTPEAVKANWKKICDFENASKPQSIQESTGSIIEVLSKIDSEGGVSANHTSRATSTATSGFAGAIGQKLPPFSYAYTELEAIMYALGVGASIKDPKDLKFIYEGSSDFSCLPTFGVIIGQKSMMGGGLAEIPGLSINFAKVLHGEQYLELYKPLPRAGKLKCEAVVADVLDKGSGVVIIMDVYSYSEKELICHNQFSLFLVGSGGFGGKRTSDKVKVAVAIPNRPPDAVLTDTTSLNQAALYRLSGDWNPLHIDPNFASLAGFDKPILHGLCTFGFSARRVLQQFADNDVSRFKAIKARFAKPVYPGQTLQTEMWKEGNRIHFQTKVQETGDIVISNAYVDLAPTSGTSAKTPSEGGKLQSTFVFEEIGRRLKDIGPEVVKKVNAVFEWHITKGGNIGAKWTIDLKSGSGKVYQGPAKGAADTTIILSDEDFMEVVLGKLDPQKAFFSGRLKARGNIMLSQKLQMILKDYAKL
UniProt Q99714: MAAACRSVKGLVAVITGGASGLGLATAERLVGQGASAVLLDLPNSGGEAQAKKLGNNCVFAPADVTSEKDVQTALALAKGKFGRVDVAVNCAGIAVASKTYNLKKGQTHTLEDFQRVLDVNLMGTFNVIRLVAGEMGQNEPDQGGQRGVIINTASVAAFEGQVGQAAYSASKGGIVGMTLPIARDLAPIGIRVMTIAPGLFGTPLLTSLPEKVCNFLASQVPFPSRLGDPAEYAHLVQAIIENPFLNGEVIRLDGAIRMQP
UniProt O75330: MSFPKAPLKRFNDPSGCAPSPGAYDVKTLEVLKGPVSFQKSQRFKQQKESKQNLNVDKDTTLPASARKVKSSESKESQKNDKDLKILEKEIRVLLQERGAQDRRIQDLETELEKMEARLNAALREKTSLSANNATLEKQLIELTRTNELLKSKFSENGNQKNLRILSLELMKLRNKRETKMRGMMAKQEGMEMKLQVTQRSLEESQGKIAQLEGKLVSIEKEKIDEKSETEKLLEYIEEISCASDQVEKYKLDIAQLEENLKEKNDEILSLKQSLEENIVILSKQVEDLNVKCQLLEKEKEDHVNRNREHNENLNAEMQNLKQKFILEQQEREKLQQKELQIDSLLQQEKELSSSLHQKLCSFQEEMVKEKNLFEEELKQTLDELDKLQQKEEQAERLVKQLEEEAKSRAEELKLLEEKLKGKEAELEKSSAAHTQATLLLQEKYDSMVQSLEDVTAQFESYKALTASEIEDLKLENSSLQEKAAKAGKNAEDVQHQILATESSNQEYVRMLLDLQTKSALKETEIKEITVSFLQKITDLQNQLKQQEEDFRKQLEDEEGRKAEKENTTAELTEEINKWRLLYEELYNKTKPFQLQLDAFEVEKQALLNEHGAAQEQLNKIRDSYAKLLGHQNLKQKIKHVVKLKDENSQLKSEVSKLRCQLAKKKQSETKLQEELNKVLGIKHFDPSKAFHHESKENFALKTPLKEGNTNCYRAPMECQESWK
UniProt Q03014: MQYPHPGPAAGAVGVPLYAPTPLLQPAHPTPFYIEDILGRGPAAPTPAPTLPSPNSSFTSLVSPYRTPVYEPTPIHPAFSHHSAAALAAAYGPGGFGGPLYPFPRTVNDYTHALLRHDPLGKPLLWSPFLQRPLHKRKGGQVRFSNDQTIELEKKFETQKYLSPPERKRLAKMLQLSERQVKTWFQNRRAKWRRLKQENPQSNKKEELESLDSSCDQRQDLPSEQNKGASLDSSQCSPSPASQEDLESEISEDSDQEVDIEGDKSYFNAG
UniProt P52597: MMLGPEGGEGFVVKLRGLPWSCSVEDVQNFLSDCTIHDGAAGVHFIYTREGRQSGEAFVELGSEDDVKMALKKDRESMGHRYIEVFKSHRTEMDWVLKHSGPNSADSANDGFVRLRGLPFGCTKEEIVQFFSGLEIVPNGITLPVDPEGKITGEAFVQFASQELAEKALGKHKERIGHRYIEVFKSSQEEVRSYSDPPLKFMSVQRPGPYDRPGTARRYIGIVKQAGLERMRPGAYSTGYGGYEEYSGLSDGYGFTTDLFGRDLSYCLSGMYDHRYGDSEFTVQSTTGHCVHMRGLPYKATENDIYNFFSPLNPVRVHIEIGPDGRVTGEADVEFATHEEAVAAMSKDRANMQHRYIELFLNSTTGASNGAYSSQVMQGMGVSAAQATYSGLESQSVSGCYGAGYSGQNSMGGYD
UniProt P56937: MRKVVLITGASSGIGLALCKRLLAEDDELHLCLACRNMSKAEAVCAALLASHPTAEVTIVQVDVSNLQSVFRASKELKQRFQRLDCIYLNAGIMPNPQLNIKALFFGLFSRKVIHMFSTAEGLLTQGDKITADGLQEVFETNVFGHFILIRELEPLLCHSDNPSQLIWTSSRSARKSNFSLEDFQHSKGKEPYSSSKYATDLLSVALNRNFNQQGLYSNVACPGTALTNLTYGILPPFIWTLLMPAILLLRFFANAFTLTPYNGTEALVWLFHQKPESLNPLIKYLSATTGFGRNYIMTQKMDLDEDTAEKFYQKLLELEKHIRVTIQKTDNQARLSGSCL
UniProt P09429: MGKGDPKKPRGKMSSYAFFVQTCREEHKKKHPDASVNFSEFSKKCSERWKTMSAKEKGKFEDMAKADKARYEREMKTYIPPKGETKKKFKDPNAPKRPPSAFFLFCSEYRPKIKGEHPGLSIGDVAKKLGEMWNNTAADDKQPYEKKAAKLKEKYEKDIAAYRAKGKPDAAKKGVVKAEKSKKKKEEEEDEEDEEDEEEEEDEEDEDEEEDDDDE
UniProt P26583: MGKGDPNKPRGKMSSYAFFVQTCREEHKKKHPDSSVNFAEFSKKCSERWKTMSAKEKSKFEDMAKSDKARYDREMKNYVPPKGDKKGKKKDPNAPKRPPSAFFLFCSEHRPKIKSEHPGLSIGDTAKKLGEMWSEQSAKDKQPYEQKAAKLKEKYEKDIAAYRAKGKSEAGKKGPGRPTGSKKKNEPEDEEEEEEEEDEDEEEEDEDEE
UniProt Q1KMD3: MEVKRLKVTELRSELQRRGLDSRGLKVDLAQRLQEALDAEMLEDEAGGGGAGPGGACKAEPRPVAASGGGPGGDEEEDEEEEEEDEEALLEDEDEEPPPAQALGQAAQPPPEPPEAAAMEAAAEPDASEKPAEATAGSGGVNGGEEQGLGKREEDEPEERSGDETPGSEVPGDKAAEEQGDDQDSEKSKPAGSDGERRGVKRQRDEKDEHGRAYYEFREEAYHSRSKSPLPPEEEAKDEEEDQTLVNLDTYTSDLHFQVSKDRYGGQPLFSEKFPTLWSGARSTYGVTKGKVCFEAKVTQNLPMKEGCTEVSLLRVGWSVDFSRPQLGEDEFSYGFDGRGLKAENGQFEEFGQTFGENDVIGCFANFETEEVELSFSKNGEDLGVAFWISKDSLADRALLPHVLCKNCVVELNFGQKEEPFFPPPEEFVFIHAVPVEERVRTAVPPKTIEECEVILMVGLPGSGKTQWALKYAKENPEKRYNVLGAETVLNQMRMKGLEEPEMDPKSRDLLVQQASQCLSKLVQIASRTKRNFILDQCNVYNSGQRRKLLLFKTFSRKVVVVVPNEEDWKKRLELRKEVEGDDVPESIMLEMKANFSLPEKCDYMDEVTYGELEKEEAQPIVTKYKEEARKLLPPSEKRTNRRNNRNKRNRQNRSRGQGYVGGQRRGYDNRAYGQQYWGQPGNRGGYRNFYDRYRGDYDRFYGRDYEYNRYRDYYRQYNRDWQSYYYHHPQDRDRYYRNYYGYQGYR
UniProt P52272: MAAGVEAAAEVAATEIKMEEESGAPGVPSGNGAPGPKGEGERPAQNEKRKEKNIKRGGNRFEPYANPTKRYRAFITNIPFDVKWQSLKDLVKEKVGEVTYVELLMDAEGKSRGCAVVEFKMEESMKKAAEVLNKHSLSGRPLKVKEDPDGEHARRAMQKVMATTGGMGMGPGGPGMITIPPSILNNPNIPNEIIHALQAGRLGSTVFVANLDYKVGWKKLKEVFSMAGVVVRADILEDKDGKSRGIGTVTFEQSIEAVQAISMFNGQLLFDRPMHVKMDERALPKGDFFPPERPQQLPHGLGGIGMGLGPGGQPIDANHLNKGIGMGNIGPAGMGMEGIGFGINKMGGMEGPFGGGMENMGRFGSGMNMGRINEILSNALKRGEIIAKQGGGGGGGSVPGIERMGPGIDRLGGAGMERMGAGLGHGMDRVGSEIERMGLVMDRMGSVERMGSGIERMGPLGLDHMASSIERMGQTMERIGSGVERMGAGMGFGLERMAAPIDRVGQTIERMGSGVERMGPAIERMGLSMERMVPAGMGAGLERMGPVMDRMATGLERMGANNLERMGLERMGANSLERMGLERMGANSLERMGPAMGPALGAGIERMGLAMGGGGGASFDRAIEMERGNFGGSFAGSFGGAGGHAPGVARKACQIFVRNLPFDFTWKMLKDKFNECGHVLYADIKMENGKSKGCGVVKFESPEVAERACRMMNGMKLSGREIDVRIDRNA
UniProt Q9NP66: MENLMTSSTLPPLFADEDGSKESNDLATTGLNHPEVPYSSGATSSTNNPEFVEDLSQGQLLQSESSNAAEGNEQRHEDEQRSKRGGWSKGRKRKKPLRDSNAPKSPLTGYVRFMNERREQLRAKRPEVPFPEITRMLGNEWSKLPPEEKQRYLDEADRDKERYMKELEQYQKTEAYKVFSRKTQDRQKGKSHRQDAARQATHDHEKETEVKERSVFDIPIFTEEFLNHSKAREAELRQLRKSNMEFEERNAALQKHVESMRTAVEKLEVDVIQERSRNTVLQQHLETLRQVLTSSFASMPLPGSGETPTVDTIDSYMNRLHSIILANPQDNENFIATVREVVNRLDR

filanesib = compound: CON(C)C(=O)N1N=C(c2cc(F)ccc2F)S[C@@]1(CCCN)c1ccccc1 [filanesib]
Method in brief: as §1

zotarolimus = compound: CO[C@H]1C[C@@H]2CC[C@@H](C)[C@@](O)(O2)C(=O)C(=O)N2CCCC[C@H]2C(=O)O[C@H]([C@H](C)C[C@@H]2CC[C@H](n3cnnn3)[C@H](OC)C2)CC(=O)[C@H](C)/C=C(\C)[C@@H](O)[C@@H](OC)C(=O)[C@H](C)C[C@H](C)/C=C/C=C/C=C/1C [zotarolimus]
Method in brief: as §1

idasanutlin = compound: COc1cc(C(=O)O)ccc1NC(=O)[C@@H]1N[C@@H](CC(C)(C)C)[C@](C#N)(c2ccc(Cl)cc2F)[C@H]1c1cccc(Cl)c1F [idasanutlin]
Method in brief: as §1

alisertib = compound: COc1cc(Nc2ncc3c(n2)-c2ccc(Cl)cc2C(c2c(F)cccc2OC)=NC3)ccc1C(=O)O [alisertib]
Method in brief: as §1

[2] = compound: COc1cc2nc(-c3cc(F)ccc3O)nc(N[C@@H]3CNC[C@H]3C(C)(C)O)c2cc1OC
Method in brief: as §1

gefitinib = compound: COc1cc2ncnc(Nc3ccc(F)c(Cl)c3)c2cc1OCCCN1CCOCC1 [gefitinib]
Method in brief: as §1

[3] = compound: COc1cccc2cc(-c3nc([C@H]4CC[C@H](C(=O)O)CC4)n4ncnc(N)c34)[nH]c12
Method in brief: as §1

lapatinib = compound: CS(=O)(=O)CCNCc1ccc(-c2ccc3ncnc(Nc4ccc(OCc5cccc(F)c5)c(Cl)c4)c3c2)o1 [lapatinib]
Method in brief: as §1

pictilisib = compound: CS(=O)(=O)N1CCN(Cc2cc3nc(-c4cccc5[nH]ncc45)nc(N4CCOCC4)c3s2)CC1 [pictilisib]
Method in brief: as §1

Measured: log2 fold change

HNRNPLL (UniProt Q8WVV9)
inactive: [1] 0.136 | filanesib 0.073 | zotarolimus -0.003 | idasanutlin -0.049 | alisertib 0.109 | [2] -0.089 | gefitinib 0.073 | [3] 0.04 | lapatinib 0.126 | pictilisib 0.028

IARS2 (UniProt Q9NSE4)
inactive: [1] 0.026 | filanesib -0.068 | zotarolimus -0.029 | idasanutlin -0.04 | alisertib -0.05 | [2] -0.016 | gefitinib 0.003 | [3] 0.065 | lapatinib 0.006 | pictilisib -0.039

HNRNPA2B1 (UniProt P22626)
inactive: [1] -0.122 | filanesib 0.427 | zotarolimus -0.114 | idasanutlin 0.361 | alisertib -0.131 | [2] -0.007 | gefitinib -0.069 | [3] -0.071 | lapatinib 0.086 | pictilisib -0.026

HSD17B4 (UniProt P51659)
inactive: [1] 0.007 | filanesib -0.033 | zotarolimus 0.006 | idasanutlin 0.01 | alisertib -0.033 | [2] -0.002 | gefitinib 0.048 | [3] -0.001 | lapatinib 0.033 | pictilisib 0.017

HSD17B10 (UniProt Q99714)
inactive: [1] 0.155 | filanesib -0.153 | zotarolimus 0.025 | idasanutlin -0.045 | alisertib -0.127 | [2] -0.049 | gefitinib 0.043 | [3] 0.004 | lapatinib 0.055 | pictilisib -0.015

HMMR isoform 3 (UniProt O75330)
inactive: [1] 0.005 | filanesib 0.046 | zotarolimus 0.083 | idasanutlin -0.031 | alisertib -0.002 | [2] -0.004 | gefitinib 0.037 | [3] -0.096 | lapatinib 0.002 | pictilisib -0.011

HHEX (UniProt Q03014)
inactive: [1] 0.178 | filanesib -0.007 | zotarolimus -0.102 | idasanutlin 0.035 | alisertib 0.002 | [2] -0.04 | gefitinib -0.016 | [3] 0.053 | lapatinib -0.004 | pictilisib -0.012

HNRNPF (UniProt P52597)
inactive: [1] 0.059 | filanesib -0.03 | zotarolimus 0.046 | idasanutlin 0.073 | alisertib 0.03 | [2] -0.036 | gefitinib -0.034 | [3] -0.026 | lapatinib 0.008 | pictilisib -0.088

Reprinted at random: 2 entries already listed
HHEX (UniProt Q03014)
inactive: [1] 0.178 | filanesib -0.007 | zotarolimus -0.102 | idasanutlin 0.035 | alisertib 0.002 | [2] -0.04 | gefitinib -0.016 | [3] 0.053 | lapatinib -0.004 | pictilisib -0.012

HNRNPA2B1 (UniProt P22626)
inactive: [1] -0.122 | filanesib 0.427 | zotarolimus -0.114 | idasanutlin 0.361 | alisertib -0.131 | [2] -0.007 | gefitinib -0.069 | [3] -0.071 | lapatinib 0.086 | pictilisib -0.026

(continued)

HSD17B7 (UniProt P56937)
inactive: [1] 0.074 | filanesib -0.114 | zotarolimus 0.034 | idasanutlin -0.111 | alisertib -0.118 | [2] -0.024 | gefitinib 0.01 | [3] 0.092 | lapatinib 0.128 | pictilisib 0.045

HNRNPR isoform 2 (UniProt O43390)
inactive: [1] -0.022 | filanesib 0.196 | zotarolimus -0.052 | idasanutlin 0.2 | alisertib -0.055 | [2] -0.051 | gefitinib -0.051 | [3] -0.051 | lapatinib 0.061 | pictilisib -0.042

HMGB1 (UniProt P09429)
inactive: [1] 0.011 | filanesib -0.044 | zotarolimus 0.032 | idasanutlin 0.074 | alisertib -0.046 | [2] -0.038 | gefitinib -0.007 | [3] 0.003 | lapatinib 0.002 | pictilisib -0.066

HMGB2 (UniProt P26583)
inactive: [1] 0.212 | filanesib -0.068 | zotarolimus 0.012 | idasanutlin -0.004 | alisertib -0.056 | [2] -0.066 | gefitinib -0.015 | [3] 0.019 | lapatinib 0.041 | pictilisib 0.019

HNRNPUL2 (UniProt Q1KMD3)
inactive: [1] -0.012 | filanesib 0.156 | zotarolimus -0.015 | idasanutlin 0.083 | alisertib -0.026 | [2] 0.105 | gefitinib -0.02 | [3] 0.005 | lapatinib -0.018 | pictilisib 0.035

HNRNPM (UniProt P52272)
inactive: [1] -0.101 | filanesib 0.238 | zotarolimus 0.06 | idasanutlin 0.295 | alisertib 0.056 | [2] -0.153 | gefitinib -0.031 | [3] -0.25 | lapatinib 0.075 | pictilisib -0.09

HMG20A (UniProt Q9NP66)
inactive: [1] -0.045 | filanesib 0.05 | zotarolimus 0.078 | idasanutlin -0.21 | alisertib -0.016 | [2] 0.147 | gefitinib 0.065 | [3] -0.021 | lapatinib -0.088 | pictilisib 0.145

Source: the supplement of paper PMC10849652
